PubChem BioAssay AID493246 – Drosophila RNAi Screening Center, 2011
The screen tested about 21,000 reagents; below is an unselected part of those that have a named target and a result. Of all reagents, 429 (2%) are marked active. 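Values are raw and not normalised between plates; calls rest on per-plate z-scores that were not deposited.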 Names joined by + are all predicted targets of the reagent. Not stated in the record: the amount of reagent, the time to read-out.

Aim: 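Genes fly cells need to grow and stay alive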 (primary screen)
System: Drosophila Kc and S2R+ cells
Reagent: long dsRNA against Drosophila genes
Measurement: 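Cell number per well after knock-down, printed as raw plate values; calls were based on per-plate z-scores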
Scale: Kc cell number and S2R+ cell number: higher = more cells remaining
Rule for the call: 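Counted as a hit if cell number falls by a z-score of at least 3 within its plate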

target | DRSC id | Kc cell number, rep 1 | Kc cell number, rep 2 | S2R+ cell number, rep 1 | S2R+ cell number, rep 2 | Outcome
obst-E | DRSC02128 | 1.31e6 | 1.51e6 | 3.29e5 | 3.59e5 | inactive
CG32066 | DRSC10652 | 1.30e6 | 1.36e6 | 1.30e6 | 1.14e6 | inactive
CG32066 | DRSC10653 | 1.39e6 | 1.44e6 | 1.18e6 | 1.27e6 | inactive
dpr9 | DRSC14534 | 1.50e6 | 1.56e6 | 1.30e6 | 1.36e6 | inactive
dpr9 | DRSC14985 | 1.21e6 | 1.35e6 | 1.10e6 | 1.18e6 | inactive
dpr9 | DRSC14986 | 1.30e6 | 1.40e6 | 1.10e6 | 1.22e6 | inactive
Pdha | DRSC18413 | 1.47e6 | 1.46e6 | 1.01e6 | 1.14e6 | inactive
CG5050 | DRSC02807 | 1.63e6 | 1.63e6 | 1.36e6 | 1.50e6 | inactive
CG33263 | DRSC10108 | 1.33e6 | 1.47e6 | 1.29e6 | 1.37e6 | inactive
CG32668 | DRSC18879 | 1.64e6 | 1.78e6 | 1.15e6 | 1.19e6 | inactive
Grl36b | DRSC01627 | 1.64e6 | 1.72e6 | 1.02e6 | 1.26e6 | inactive
mub | DRSC11896 | 1.78e6 | 1.88e6 | 1.19e6 | 1.29e6 | inactive
CG15431 | DRSC00446 | 1.42e6 | 1.40e6 | 1.10e6 | 1.23e6 | inactive
CG14126 (retired record) | DRSC10130 | 1.32e6 | 1.37e6 | 1.21e6 | 1.31e6 | inactive

Copied from the list:
Entry of Grl36b [DRSC01627] under “Kc cell number, rep 2”: 1.72e6
CG32066 [DRSC10653], S2R+ cell number, rep 1: 1.18e6

Additional results:
target | DRSC id | Kc cell number, rep 1 | Kc cell number, rep 2 | S2R+ cell number, rep 1 | S2R+ cell number, rep 2 | Outcome
ghi | DRSC08985 | 1.71e6 | 1.89e6 | 1.23e6 | 1.37e6 | inactive
Cpr57A + Obp57d | DRSC06708 | 1.33e6 | 1.35e6 | 1.20e6 | 1.23e6 | inactive
mahe | DRSC17755 | 5.38e5 | – | 8.24e5 | – | inactive
CG9663 | DRSC00724 | 1.34e6 | 1.37e6 | 8.64e5 | 9.74e5 | inactive
cv-c | DRSC14969 | 1.45e6 | 1.45e6 | 1.19e6 | 1.28e6 | inactive
cv-c | DRSC14970 | 1.40e6 | 1.50e6 | 1.18e6 | 1.33e6 | inactive
cv-c | DRSC14971 | 1.27e6 | 1.22e6 | 8.86e5 | 9.74e5 | inactive
cv-c | DRSC14972 | 1.50e6 | 1.54e6 | 1.01e6 | 1.15e6 | inactive
cv-c | DRSC14973 | 1.50e6 | 1.57e6 | 9.65e5 | 1.05e6 | inactive
cv-c | DRSC16428 | 1.46e6 | 1.44e6 | 1.14e6 | 1.20e6 | inactive
